In all, about 43,000 compounds went through this assay and about 200 (0.47%) were called active. Listed are the inconclusive results; actives and inactives stand elsewhere. Calls come from the whole dose curve; as a rule, active = well fitted cell-killing curve with a large enough effect; inconclusive = small, poorly fitted or top-dose-only effect, or effect the other way; inactive = flat fitted curve, though single readings scatter.
assay: Cell viability qHTS assay in S16 Pmp22-F2sN cells; settings: S16 Pmp22-F2sN Schwann cells (luciferase reporters placed in the Pmp22 gene) viability, CellTiter-Glo, 24 h; note: nearly all actives have a fitted effect of over 65% in size
From the text: Assay Provider: Jim Inglese Ph.D. National Center for Advancing Translational Science, National Institutes of Health, Rockville, MD CMT is a heterogeneous group of neurological disorders that affect approximately 1 in 2,500 people. In particular, the most common form of CMT, CMT1A is genetically linked to the duplication of the PMP22 gene which leads to Schwann cell overexpression, thus manifesting itself as a typical case of dose-sensitive diseases. […] We can further discriminate the effect of all transcriptionally active molecules on PMP22 translation or stability with an assay that incorporates a short NLuc peptide (HiBiT) at the C-terminus of expressed PMP22 (S16(f8) PMP22-HiBiT) allowing alpha complementation and luminescence detection of membrane-associated PMP22 protein. […] Miniaturization of these assays to 1536-well plate format for quantitative high throughput screening (qHTS) yielded rich data sets immediately from the qHTS assay (S16(c9) Pmp22-F2sN), when compared with data from a cell viability assay (Cell TiterGlo) to identify compounds that decreased the output signals through cellular toxicity to streamline the selection process of actives for subsequent characterization using the HiBiT assay (S16(f8) PMP22-HiBiT). […]
Potency is the fitted concentration of half-maximal effect.

SMILES | Potency
CCCOc1cccc(C(=O)NCC2(N3CCOCC3)CCCCC2)c1 | inconclusive: 28.2 µM
